Where a protein sequence is shown, tags need not be part of it.
target: T1, His-FLAG-Zur (Caulobacter crescentus NA1000) (UniProt Q9AB74); assay: EMSA; settings: 0.1 mM MnCl2, shift from 25 nM Zur, the lowest concentration; 10 mM Tris-HCl pH 7.5, 40 mM KCl, 1 mM MgCl2, 1 mM DTT, 0.1 mM MnCl2, 0.1 mg/ml BSA, 5% glycerol, 0.1 mg/ml salmon sperm DNA, 30 C, 30 min; recombinant protein; residues 1-163; protein details: N-terminal His (pET28a) and FLAG (DYKDDDDK); label: 32P; probe letters rebuilt from the primers and the genome
T1 sequence (looked up): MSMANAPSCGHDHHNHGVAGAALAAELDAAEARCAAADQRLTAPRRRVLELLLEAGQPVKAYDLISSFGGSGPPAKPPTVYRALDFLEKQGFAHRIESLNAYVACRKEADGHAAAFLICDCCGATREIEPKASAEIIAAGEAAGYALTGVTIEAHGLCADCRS

Binding result, binds:
GGAATTCGCCTTGTTGATCTCGTCAGCGACCGGGCGCAGGCCCGCCAGCCGCAGGAAGTAGTCGATGTTCTCGCGCGCGGTCAGGTGCTCGTACAGCGCCACGTTCTCGGGAATGTAGGCGATGGCGCGCCGCACCTCGGCGGGCTCCGACGCAGGATCGCGGCCGACCACGCGGACGCGTCCGGCGCTGGGGCGGACAAAGCCGAGGATCGCCTGCAGGGTGGTCGACTTCCCCGCGCCGTTGCCGCCGAGCAGCCCGTAGACCTCTCCGGCCCTGACCGTCAGGGCCAGGTGGTCGATCACGGCGCGATCACCGTAACGCACCACGAGATCTGCGATCTCGATCGCTTTGTCGCCATCCACGGTCTTCACGCCACCCTCTTGAGCCTCTGCGGCGCTGCTTGCGCCATCAAGTGATGTTATATCATAACAATTGCCTTGACCGTCGATCAAGCCCTCGCCTATTCGACCGCCCCAACCCAGACCGCCGTTCTCCAGTGAGATCCAGACGGATCC (double strand) [znuK/znuGHI (CC1517/CC1518) promoter], GGAATTCTTCGCGCGCCGAAAGTGACGCCTTCGTCGATCGGGTTATGGCCCACGAAGCCCAAAATGGCTTCGGCTTCTGGGTGGTCGAGCGCAAGGCGGACGTCCGCCTTGTCGGCATGACCGGCGTCTGGTGGGTCCCGCCCGCGATGAACATGCCCGACACGACCGAGATCGGTTGGCGCTTTCTGCCCGAGGTCTGGGGCCAGGGCTACGCCACCGAAGCCGCCACGGCCGCCCTGGCCTATGGCTTCGACGTATTGAGGCTGCCGGAGATCATCGCCTTTACGGCCAGATCCAACCTCGCGTCCCAGGCGGTGATGCGCCGGATCGGCATGACGCCCGCGCCGGCGCGCGATTTCCTGCATCCCAGACTGGCGGAGGGCGATCCGCTGCGGCCTCATGTGACGTTCGAGGCGCATCCTCAAGCCGGTCGCGACGGCGACTGAGGCTATCCGCCCACGGACCGACAAGAAGTTCTCCCGCGAAGTGAAAGCGGATTGACGGGAAGATACGTTATTTCATAACAGTCTCCCTAGCAGTCTCTAGGCGGTCGCTCCCCCGACCGCGCATCTCGTGGTTGGATCCG (double strand) [znuL (CC0214) promoter], TATGAATTCTCGAGCTTTTCGACCACCAGCAGGTCGCCGGCTTGAACCCGGTACTGCTTGCCGCCGGTTTTGATCACCGCGTACATAGGTTAGCGCCTTAAAAACGTGCGTTCGCAAAATAGGGAACGCCCGCTCGGAAACCCGGCGGGCGAAGAGGGCGCGACTTATACAGCCCAAGGCTCGGGAGTCAACGGCGTAGCGGCGGATTCAGCCGAGGCGCGCGACGAAAGCACACAAGAGGGCGGGTACCCTCTGGAATGTTACTTTATAACACGCTATATGCCCTTCCGTGACCTCGCCCTTCTTCGCCTCGATCGCCGTCACCGCCTTTGCGGTCGCCTTTCTGCACGCCGCGCTGCCGACTCACTGGCTGCCGTTCGTGCTGGTCGGGATCCATA (double strand) [zrpW (CC0320) promoter]

Reference: article PMC4176598
